# Measured values as given in publication PMC7048787, “MCL1 binding to the reverse BH3 motif of P18INK4C couples cell survival to cell proliferation” (Cell Death & Disease, 2020).
# The chains behind the UniProt entries cited, without tags or fusion partners. Where a name states a change or a piece, a line headed by the entry shows the natural chain unless it says otherwise. Residues count along the entry.
# UniProt P42773: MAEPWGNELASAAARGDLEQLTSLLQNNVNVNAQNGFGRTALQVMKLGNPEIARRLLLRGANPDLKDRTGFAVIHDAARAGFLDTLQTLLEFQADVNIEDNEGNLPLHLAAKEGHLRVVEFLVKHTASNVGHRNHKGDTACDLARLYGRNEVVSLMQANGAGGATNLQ
# P18-ANK1-4 (P18 residues 1-140): residues 1-140 of P42773
# UniProt P42771: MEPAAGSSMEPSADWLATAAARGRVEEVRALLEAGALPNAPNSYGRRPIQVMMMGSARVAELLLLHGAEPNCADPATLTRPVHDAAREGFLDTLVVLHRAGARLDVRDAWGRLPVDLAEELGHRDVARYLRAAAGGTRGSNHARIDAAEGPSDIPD
# These are yes or no findings as the source states them, for the method shown. For some of these results: Binding seen in cells or lysates may run through a third protein. Some results given as binding are weak or reduced against the parent protein; the word gives no strength.
# B1: His6-MCL1 (human MCL1 residues 163-326) (domain or fragment, UniProt Q07820 163-326, looked up)
# chain: TPPPAEEEEDELYRQSLEIISRYLREQATGAKDTKPMGRSGATSRKALETLRRVGDGVQRNHETAFQGMLRKLDIKNEDDVKSLSRVMIHVFSDGVTNWGRIVTLISFGAFVAKHLKTINQESCIEPLAESITDVLVRTKRDWLVKQRGWDGFVEFFHVEDLEG
# notes: Named His6-MCL1 in the FPA; called rMCL1 in the pull-downs; also called His-MCL1; recombinant MCL1; source: E. coli BL21(DE3), purified (nickel column, gel filtration); not shown: His6, N-terminal, kept
# What was measured:
# [1] = biological target: P18 (P18INK4C), endogenous (human (endogenous in PC-3 and WAC2)) (UniProt P42773); test: co-IP; reverse immunoprecipitation of endogenous P18 with a monoclonal antibody (or control IgG) from PC-3 cells, blots for MCL1 and CDK6
# [2] = biological target: MCL1, endogenous (human (endogenous in PC-3 and WAC2)) (UniProt Q07820); test: co-IP; immunoprecipitation of endogenous MCL1 (or control IgG) from PC-3 and WAC2 cells, blots for P18 and BAX
# [3] = biological target: P16 (P16INK4A residues 1-156), recombinant (human) (UniProt P42771); test: pull-down; in vitro pulldown of recombinant P18, P16, truncated and chimeric proteins (IP) with recombinant MCL1 (IB); both purified
# [4] = biological target: P18-ANK1-4 (P18 residues 1-140) (human) (UniProt P42773); test: as above
molecule,measurement,setting,value
"MCL1, endogenous (from UniProt Q07820 1-350)",binding,[1],binds
"P18 (P18INK4C), endogenous (from UniProt P42773 1-168)",binding,[2],binds
B1,binding,[3],no binding
same,binding,[4],no binding
